PubChem BioAssay AID504744 – Drosophila RNAi Screening Center | 2011

- Test: 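Find genes whose loss alters insulin-driven dAkt phosphorylation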 (primary screen)
- System: Drosophila Kc167 cells
- Knock-down reagent: long dsRNA against Drosophila genes, 250 ng dsRNA per well of a 384-well plate
- Duration: 3 days of knock-down, then overnight serum-free starvation before stimulation
- Challenge: bovine insulin at 387 nM for 10 minutes after 12 h without serum
- Measured: 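Per-well phospho-dAkt level from an in-cell fluorescent antibody stain, divided by a DNA-dye signal; log2 residuals turned into z-scores that take cell number into account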
- Hit rule: 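Under insulin, a gene counts as a hit if the average z-score of two replicates lies above 2.5 or below -2.5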
In all, the deposit lists about 23,000 reagents; this is a random part of those with a known target gene and a result. Over the whole deposit, 98 (0.43%) got an active call. 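Only hit calls are given; the phospho-dAkt signals, z-scores and hit direction were not deposited.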 Names joined by + are all predicted targets of the reagent. Reagent sequences are not shown.

| gene | amplicon | Outcome |
| --- | --- | --- |
| Obp58b | DRSC04161 | inactive |
| CG17163 | DRSC20901 | inactive |
| Tm2 | DRSC16887 | inactive |
| Hsp60D | DRSC02543 | inactive |
| Ids | DRSC08222 | inactive |
| CG13044 | DRSC09925 | inactive |
| CG9932 | DRSC03275 | inactive |
| Ugt302C1 | DRSC15353 | inactive |
| edin | DRSC09488 | inactive |
| CG31848 | DRSC01309 | inactive |
| CG11593 | DRSC08206 | inactive |
| Dph5 | DRSC16653 | inactive |
| CG15820 | DRSC08480 | inactive |
| Ir54a + sub | DRSC06459 | inactive |
| osa | DRSC17022 | inactive |
| shtd | DRSC20166 | inactive |
| CG31126 | DRSC14623 | inactive |
| vkg | DRSC03632 | inactive |
| Mkp3 | DRSC10084 | inactive |
| Mkp3 | DRSC10085 | inactive |
| Gabat | DRSC10846 | inactive |
| CG12818 | DRSC14556 | inactive |
| ssp | DRSC10252 | inactive |
| CG9175 | DRSC03153 | inactive |
| NimC1 | DRSC01879 | inactive |
| fzy | DRSC03534 | inactive |
| Ahcy | DRSC19329 | inactive |
| CG5276 | DRSC15759 | inactive |
| CG12307 | DRSC02159 | inactive |
| scaf6 | DRSC10075 | inactive |
| scaf6 | DRSC10676 | inactive |
| scaf6 | DRSC10678 | inactive |
| PGRP-SC1a | DRSC06482 | inactive |
| Acox57D-d | DRSC04561 | inactive |
| Su(var)3-3 | DRSC10250 | inactive |
| CG10631 | DRSC02081 | inactive |
| Vha100-4 | DRSC16282 | inactive |
| NiPp1 | DRSC07307 | inactive |
| Ac13E | DRSC19325 | inactive |
| mRpL55 | DRSC14764 | inactive |
| mei-W68 | DRSC07649 | inactive |
| RpL35 | DRSC18347 | inactive |
| CG30122 | DRSC06776 | inactive |
| CG30122 | DRSC06935 | inactive |
| Cyp6a22 | DRSC07382 | inactive |
| kuk | DRSC15730 | inactive |
| TAF1C-like | DRSC04073 | inactive |
| CG14297 | DRSC14776 | inactive |
| Tsen2 | DRSC01557 | inactive |
| Tsf2 | DRSC09751 | inactive |
| CG9396 | DRSC16487 | inactive |
| CG17376 | DRSC21717 | inactive |
| Sld5 | DRSC14892 | inactive |
| CG4282 | DRSC06865 | inactive |
| Cpr5C | DRSC18340 | inactive |
| Cip4 | DRSC08091 | inactive |
| Cip4 | DRSC08469 | inactive |
| Cip4 | DRSC21740 | inactive |
| cort | DRSC02148 | inactive |
| CG12992 | DRSC19512 | inactive |
| Muc12Ea | DRSC19937 | inactive |
| moi + Tgs1 | DRSC16371 | inactive |
| CG8746 | DRSC07257 | inactive |
| Ulp1 | DRSC19339 | inactive |
| Lcp65Af | DRSC11213 | inactive |
| Ada2a | DRSC16206 | inactive |
| Ada2a | DRSC21598 | inactive |
| GC1 | DRSC15322 | inactive |
| CG13473 | DRSC10017 | inactive |
| Nufip | DRSC10397 | inactive |
| CG13743 | DRSC05139 | inactive |
| CG13743 | DRSC06414 | inactive |
| CG13743 | DRSC22775 | inactive |
| CG42634 + CG42635 | DRSC02450 | inactive |
| TBPH | DRSC04660 | inactive |
| Gpo1 | DRSC07128 | inactive |
| CG4324 | DRSC04462 | inactive |
| cas | DRSC12373 | inactive |
| CG17742 (retired record) | DRSC10285 | inactive |
| Or19a | DRSC20684 | inactive |
| CG31778 | DRSC00283 | inactive |
| CG3534 | DRSC15494 | inactive |
| CG16813 | DRSC02520 | inactive |
| CG31221 | DRSC14335 | inactive |
| CG31221 | DRSC16217 | inactive |
| CG3776 | DRSC04417 | inactive |
| Ate1 | DRSC05925 | inactive |
| CG42544 | DRSC12451 | inactive |
| CG14205 | DRSC19560 | inactive |
| CG9117 | DRSC03141 | inactive |
| CG31926 | DRSC00295 | inactive |
| CG14823 | DRSC10194 | inactive |
| ric8a | DRSC18093 | inactive |
| Gnmt | DRSC15987 | inactive |
| Ptip | DRSC10660 | inactive |
| Ptip | DRSC11048 | inactive |
| Pdk | DRSC07504 | inactive |
| Xrcc2 | DRSC19984 | inactive |
| AlaRS-m | DRSC09660 | inactive |
| CG10904 | DRSC04084 | inactive |
| prim | DRSC06575 | inactive |
| CG11583 | DRSC08202 | inactive |
| Tmem43 | DRSC10964 | inactive |
| Rint1 | DRSC11010 | inactive |
| CG12121 | DRSC17816 | inactive |
| speck | DRSC04608 | inactive |
| Dys | DRSC13360 | inactive |
| Dys | DRSC13364 | inactive |
| Dys | DRSC15260 | inactive |
| Dys | DRSC16218 | inactive |
| Dys | DRSC16219 | inactive |
| Dys | DRSC16220 | inactive |
| Dys | DRSC16935 | inactive |
| CG10862 | DRSC08170 | inactive |
| Pgk | DRSC00769 | inactive |
| CG15549 | DRSC15087 | inactive |
| CG12253 | DRSC02153 | inactive |
| CG33095 | DRSC14441 | inactive |
| Sod1 | DRSC11286 | inactive |
| Cpsf6 | DRSC10781 | inactive |
| CG43980 | DRSC11500 | inactive |
| CG43980 | DRSC11646 | inactive |
| Patr-1 | DRSC14159 | inactive |
| CG14207 | DRSC19562 | inactive |
| CG14207 | DRSC19563 | inactive |
| Prosalpha2 | DRSC16798 | inactive |
| XNP | DRSC15594 | inactive |
| Ir31a | DRSC22358 | inactive |
| Vav | DRSC20384 | inactive |
| CG30281 | DRSC04528 | inactive |
| CG33453 | DRSC05782 | inactive |
| wrm1 | DRSC11007 | inactive |
| CG1077 | DRSC12146 | inactive |
| CG8272 | DRSC07134 | inactive |
| CR31541 (retired record) | DRSC21876 | inactive |
| Ugt49B2 | DRSC16049 | inactive |
| CG15136 | DRSC02436 | inactive |
| CG11248 | DRSC11644 | inactive |
| CG17477 | DRSC15239 | inactive |
| schlank | DRSC18102 | inactive |
| schlank | DRSC18313 | inactive |
| CG13319 | DRSC06356 | inactive |
| sna | DRSC03613 | inactive |
| superdeath | DRSC14868 | inactive |
| Hml | DRSC11183 | inactive |
| Mpcp2 | DRSC11226 | inactive |
| spag | DRSC04717 | inactive |
| CG2269 | DRSC06833 | inactive |
| CG32801 | DRSC17964 | inactive |
| CG2694 | DRSC18470 | inactive |
| Gpdh2 | DRSC04346 | inactive |
| CG18171 | DRSC08524 | inactive |
| CG14692 | DRSC14915 | inactive |
| Efr | DRSC18322 | inactive |
| CG6184 | DRSC15986 | inactive |
| CG5768 | DRSC15870 | inactive |
| Ipk2 | DRSC00357 | inactive |

Copied from the listing (19 entries):
| gene | amplicon | Outcome |
| --- | --- | --- |
| Dys | DRSC13364 | inactive |
| Dys | DRSC15260 | inactive |
| Dys | DRSC16218 | inactive |
| Dys | DRSC16219 | inactive |
| Dys | DRSC16220 | inactive |
| Dys | DRSC16935 | inactive |
| CG10862 | DRSC08170 | inactive |
| Pgk | DRSC00769 | inactive |
| CG15549 | DRSC15087 | inactive |
| CG12253 | DRSC02153 | inactive |
| CG33095 | DRSC14441 | inactive |
| Sod1 | DRSC11286 | inactive |
| Cpsf6 | DRSC10781 | inactive |
| CG43980 | DRSC11500 | inactive |
| CG43980 | DRSC11646 | inactive |
| Patr-1 | DRSC14159 | inactive |
| CG14207 | DRSC19562 | inactive |
| CG14207 | DRSC19563 | inactive |
| Prosalpha2 | DRSC16798 | inactive |
